{"sequences": {"note": "By UniProt entry, the sequences of proteins in these tests, tags left out.", "UniProt Q0JBA9, entry or part of it": "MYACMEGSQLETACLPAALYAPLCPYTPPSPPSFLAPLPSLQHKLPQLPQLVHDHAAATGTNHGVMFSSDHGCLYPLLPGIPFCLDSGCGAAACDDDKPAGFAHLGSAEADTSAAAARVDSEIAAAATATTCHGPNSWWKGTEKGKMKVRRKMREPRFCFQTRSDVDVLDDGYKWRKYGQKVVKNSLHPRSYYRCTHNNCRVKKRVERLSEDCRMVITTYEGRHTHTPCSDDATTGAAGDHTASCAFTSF"}, "source": "paper PMC7819943", "about": "“Rice protein-binding microarrays: a tool to detect cis-acting elements near promoter regions in rice”", "note": "The other results are listed elsewhere or left out.", "data": [{"biological_target": "OsWRKY34 (Oryza sativa, UniProt Q0JBA9 1-250)", "experiment": "protein-binding microarray (RPBM); PBS, 2% BSA, 51.3 ng/ul salmon testes DNA, 50 uM zinc acetate, 200 nM TF, 25 C, 1 h; high values mean tight binding", "conditions": "protein: recombinant; tags: N-terminal polyhistidine and DsRed monomer fusion (pET32a); label: CyDye5-dUTP incorporated in the synthesized complementary strand; 3' TTTTT single-stranded linker to array surface; dsDNA, one strand shown", "how_it_was_run": "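Transcription factors were each fused at the N-terminus to a polyhistidine tag plus DsRed and expressed in E. coli BL21-CodonPlus before Ni–NTA purification. Binding to a double-stranded custom Agilent array was carried out with 200 nM protein at 25 °C for 1 h in PBS, 2% BSA, salmon testes DNA and 50 µM zinc acetate. The binding signal is per-feature fluorescence intensity, in arbitrary units, on an Axon 4000B scanner.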", "values": [{"sequence": "ACACTACCTTAAAGAAACATCAGTGACATCTCCATCACTCCGGAGTCACCTAGTGCAG", "binding signal": "8750 fluorescence intensity (a.u.)"}, {"sequence": "TCCGCCTTTTACCACCCCATTATTCAAACGAACCTCGAAACGGAGTCACCTAGTGCAG", "binding signal": "8350 fluorescence intensity (a.u.)"}, {"sequence": "GGTATTGTTGATACTTTCAGTTTTCGCATTTGTTCGCTTCCGGAGTCACCTAGTGCAG", "binding signal": "9230 fluorescence intensity (a.u.)"}, {"sequence": "TGGCTGCTCAGGGGCGGCGTTGGCGCGAGATGCGGAGGGGCGGAGTCACCTAGTGCAG", "binding signal": "10100 fluorescence intensity (a.u.)"}, {"sequence": "ACACGCTCTCGAATCGAACCTTATCACTCTTGTCATAAATCGGAGTCACCTAGTGCAG", "binding signal": "8310 fluorescence intensity (a.u.)"}, {"sequence": "CGTCTTTTGACATATGGCGCACGCACCTCTCCTCGCTTTTCGGAGTCACCTAGTGCAG", "binding signal": "9130 fluorescence intensity (a.u.)"}, {"sequence": "TAGTACACTACAGGCTACTACTACTACTACTACTACACCACGGAGTCACCTAGTGCAG", "binding signal": "8250 fluorescence intensity (a.u.)"}, {"sequence": "CTTTCGATTCCAAATTTCTCAGCTATTTCACGCATGCCCTCGGAGTCACCTAGTGCAG", "binding signal": "9210 fluorescence intensity (a.u.)"}, {"sequence": "CTTTTTTCTATTCCTATCTTTTTTTCTATTCCATTGTTTTCGGAGTCACCTAGTGCAG", "binding signal": "10000 fluorescence intensity (a.u.)"}, {"sequence": "TGCAACTATGATTATCCGTATCCAACTTTGATTTTCCGTTCGGAGTCACCTAGTGCAG", "binding signal": "8860 fluorescence intensity (a.u.)"}, {"sequence": "CGGGCTTCTTGATTTGCGGATTGTTGTTGTGGATCGCCAGCGGAGTCACCTAGTGCAG", "binding signal": "8330 fluorescence intensity (a.u.)"}, {"sequence": "ATCTGAAACTGTGTTGGTTGAACTAGCTGCTCTTCTATTTCGGAGTCACCTAGTGCAG", "binding signal": "8650 fluorescence intensity (a.u.)"}, {"sequence": "CGCCGCCGCTCGCCGACGTCGCCGCCATCGCCATTACAGCCGGAGTCACCTAGTGCAG", "binding signal": "8980 fluorescence intensity (a.u.)"}, {"sequence": "TTGGGCGGAGGAGTTCTGGGGTGGCATCGAAGGTGTGGGACGGAGTCACCTAGTGCAG", "binding signal": "10500 fluorescence intensity (a.u.)"}, {"sequence": "CCCTGCCTCATGGGCCCCACCTGCCATTAACTTTTTCGTTCGGAGTCACCTAGTGCAG", "binding signal": "9190 fluorescence intensity (a.u.)"}, {"sequence": "AGCTCAATTTAGTCTTTCAGGTTTTATTTTGTCCACGTAGCGGAGTCACCTAGTGCAG", "binding signal": "9650 fluorescence intensity (a.u.)"}, {"sequence": "AACCCTGACAATTTCCTTAGCGGTTTTGAGAGTGTTTTTCCGGAGTCACCTAGTGCAG", "binding signal": "9910 fluorescence intensity (a.u.)"}, {"sequence": "TATAAATACACCTCGCCCGCGCCTTAACTCGCATCATCAACGGAGTCACCTAGTGCAG", "binding signal": "9140 fluorescence intensity (a.u.)"}, {"sequence": "TTCCAACTTTCCCCAAACTTTCAACTTTCTGTAGGAACTACGGAGTCACCTAGTGCAG", "binding signal": "8940 fluorescence intensity (a.u.)"}, {"sequence": "GAGCTCCGCGTTCCACTCCATGTCCTCGATCTCCACCTCGCGGAGTCACCTAGTGCAG", "binding signal": "9900 fluorescence intensity (a.u.)"}, {"sequence": "CCGATTCCCTGCCGCATCTGCCCGTTGCCCTCGCGCCCGGCGGAGTCACCTAGTGCAG", "binding signal": "8880 fluorescence intensity (a.u.)"}, {"sequence": "CTCTCCATGCATCTCACCTCCACAGCGACCCACCACCCTTCGGAGTCACCTAGTGCAG", "binding signal": "9380 fluorescence intensity (a.u.)"}, {"sequence": "TGCAACTCAAAACTCACTCGATCGATCGCTTACAAGCTACCGGAGTCACCTAGTGCAG", "binding signal": "8750 fluorescence intensity (a.u.)"}, {"sequence": "CTTGTGTGTTTCCATTCTCGCGAACCTTCCACACACAGACCGGAGTCACCTAGTGCAG", "binding signal": "11700 fluorescence intensity (a.u.)"}, {"sequence": "GCGTTACTTCTCTCTGAGTCATTTGAGCCTTGTGAGTATTCGGAGTCACCTAGTGCAG", "binding signal": "8220 fluorescence intensity (a.u.)"}, {"sequence": "CGCCACCTCCCCTCCGCAAACCAGCGGGCGTCGCCGCTTCCGGAGTCACCTAGTGCAG", "binding signal": "8320 fluorescence intensity (a.u.)"}, {"sequence": "GCAGCTCACACACAACCTCTTCAATACTCTCACTGCAATTCGGAGTCACCTAGTGCAG", "binding signal": "10700 fluorescence intensity (a.u.)"}, {"sequence": "ATTTAATTTCACCTACTACTACTACTATTCTTCTTATTAACGGAGTCACCTAGTGCAG", "binding signal": "9430 fluorescence intensity (a.u.)"}, {"sequence": "ATCCCTAGGTCTATAGCAGCGCTCCTCTTCATATCCTCATCGGAGTCACCTAGTGCAG", "binding signal": "8060 fluorescence intensity (a.u.)"}, {"sequence": "AAATCATCCATCCATCCTCTACGTTCCCGATCCACCGATGCGGAGTCACCTAGTGCAG", "binding signal": "8180 fluorescence intensity (a.u.)"}, {"sequence": "TCCTCTCTCTCCTCTGATCTCTCCATCAGGTCTAATTTTTCGGAGTCACCTAGTGCAG", "binding signal": "12900 fluorescence intensity (a.u.)"}, {"sequence": "CCCTCGTGCCTATATGTAAGTAACCACGTTTCCGTGAAGTCGGAGTCACCTAGTGCAG", "binding signal": "9950 fluorescence intensity (a.u.)"}, {"sequence": "CCCAATTGTTATCCTACTTCAGACACTGATTCTAAATTCACGGAGTCACCTAGTGCAG", "binding signal": "10300 fluorescence intensity (a.u.)"}, {"sequence": "CCCCACCCCTCATTCACTCTCCACCGCACCGCACCGCACCCGGAGTCACCTAGTGCAG", "binding signal": "8860 fluorescence intensity (a.u.)"}, {"sequence": "GCCGCCCGACCTCCTCTCCCACCTCGCGCCCGCCGGCCGGCGGAGTCACCTAGTGCAG", "binding signal": "8410 fluorescence intensity (a.u.)"}, {"sequence": "TACTGATTTTCTTTATGTCTCTTTGTGGTCCCTTTGCAGTCGGAGTCACCTAGTGCAG", "binding signal": "13400 fluorescence intensity (a.u.)"}, {"sequence": "CATCATCTCTATCATCATTTCTCATCCATCACTTTCTTTGCGGAGTCACCTAGTGCAG", "binding signal": "11600 fluorescence intensity (a.u.)"}, {"sequence": "TGGTGATTGTCTTATATTTTGGGATAGATGAGATATTTATCGGAGTCACCTAGTGCAG", "binding signal": "8290 fluorescence intensity (a.u.)"}, {"sequence": "ACATTATTGTCATTGTCCTAGTAAATTATATATTTCATCGCGGAGTCACCTAGTGCAG", "binding signal": "8130 fluorescence intensity (a.u.)"}, {"sequence": "GGCTTACGAGTTCTAACAACGTCATTTTGGACTCACCTTTCGGAGTCACCTAGTGCAG", "binding signal": "9200 fluorescence intensity (a.u.)"}, {"sequence": "ACCTTTCCATCACTACAGTGTTTTGCTACAGTGCTCGGATCGGAGTCACCTAGTGCAG", "binding signal": "10200 fluorescence intensity (a.u.)"}, {"sequence": "CATATCCCGGCCAAGTTACGATCTTACTGTCTTTCCTTATCGGAGTCACCTAGTGCAG", "binding signal": "12300 fluorescence intensity (a.u.)"}, {"sequence": "TTTCGAAATGTTTGACACTGTTGACTTTTTAGCACATGTTCGGAGTCACCTAGTGCAG", "binding signal": "14200 fluorescence intensity (a.u.)"}, {"sequence": "CATCTATCTTCATTCTTCATCTCTTTCGATGGAAAGACCGCGGAGTCACCTAGTGCAG", "binding signal": "8890 fluorescence intensity (a.u.)"}, {"sequence": "GATTCCCTGCTTAGTCTGTTGTTATTTTTCAATAGTTTGACGGAGTCACCTAGTGCAG", "binding signal": "10900 fluorescence intensity (a.u.)"}, {"sequence": "TCGCCGAACTCCACCAAACCGGTCGCTATTTTCTTCCTTTCGGAGTCACCTAGTGCAG", "binding signal": "10900 fluorescence intensity (a.u.)"}, {"sequence": "ATTACCGTACGGATCCTCCTGCAGTAGACTGGCGCAATTACGGAGTCACCTAGTGCAG", "binding signal": "8540 fluorescence intensity (a.u.)"}, {"sequence": "GTGGTAAGGCATCCCACCTAAAATTTTTCATCCTGTCACACGGAGTCACCTAGTGCAG", "binding signal": "8410 fluorescence intensity (a.u.)"}, {"sequence": "ACCTTTTTCATGATGTTTTAAAGTTTATTTGGGATTAGCACGGAGTCACCTAGTGCAG", "binding signal": "9740 fluorescence intensity (a.u.)"}, {"sequence": "TGACTTTCGCCTCTCGCGCCTTTTCTACAGCTATAAGCACCGGAGTCACCTAGTGCAG", "binding signal": "10600 fluorescence intensity (a.u.)"}, {"sequence": "GCATTGAATTCACTATACATCTTGATTACACCTTATGTTACGGAGTCACCTAGTGCAG", "binding signal": "12000 fluorescence intensity (a.u.)"}, {"sequence": "TTTTTCCTATTCTATCCAATAAATTATCGCGTTGTCTGGTCGGAGTCACCTAGTGCAG", "binding signal": "9770 fluorescence intensity (a.u.)"}, {"sequence": "CATTCCCTTTGCGCGCAGCCTCGTCGCCTCGCCTCGCCGACGGAGTCACCTAGTGCAG", "binding signal": "8640 fluorescence intensity (a.u.)"}, {"sequence": "ATTTTTCTCTAATTTCCCTTTCATTCCTTCCATTTTTCCTCGGAGTCACCTAGTGCAG", "binding signal": "9330 fluorescence intensity (a.u.)"}]}]}
